Laboratory results: patent publication US9056067B2, “Pharmaceutical composition for enhancing immunity, and extract of Poria” (Sinphar Pharmaceutical Co., Ltd., priority 2003, dated 2015)
Some of these results come from one statement about several compounds together. At least one compound was matched to its structure with a doubt left.

Tests used:
Format in all cases: in vivo, mice
spleen cells = experiment: Spleen cell growth (MTT assay) after oral administration; details: day 3 of in vitro culture
Description: BALB/c male mice, 6-8 weeks old, were used throughout the experiment. The animals were purchased from National Laboratory Animal Center, Taipei, Taiwan. The mice were housed in the Individual Ventilation Cage System, which provided an environment of Specific Pyrogen-Free. The facilities had 12-h day/night rhythm, 24-26° C. and 30-70% humidity in air. Mice were fed autoclaved water and rodent chow, and the bedding was sterilized by autoclave also. The feedstock purchased from animal center of National Taiwan University composed of crude proteins (>23.0%), crude fat (>4.5%), crude fiber (<6.0%), ash (<8.0%), added minerals (<3.0%) and water (<12%). After transport, the mice were allowed to rest for two weeks before the experiments were started.
[…] The control group was the mice feeding with an equal volume of saline (0.85% of NaCl). Mice were sacrificed at day five, and both the serum and spleen cells were collected. The sera were subsequently used to measure the concentration of IgG, IgM and IgA. […]
MTT assay is the method routinely used for estimating the viable cell number and viability of the cultured cells. […] The crystal is then solubilized in an acidic isopropanol and the absorbence at 570 nm in each well was read using an ELISA reader (EL311, BioTek, VT). […] After 20 minutes at room temperature to ensure that all crystals were dissolved, the plates were read on an EIA reader at 570 nm.

IgG [1] = experiment: Serum level of IgG (ELISA); details: oral
Description: (§1) […] […] The control group was the mice feeding with an equal volume of saline (0.85% of NaCl). Mice were sacrificed at day five, and both the serum and spleen cells were collected. The sera were subsequently used to measure the concentration of IgG, IgM and IgA. The spleen cells were plated onto a 100 mm diameter culture plate and incubated at 37° C. for three hours. The non-adherent cells containing T-lymphocytes, B-lymphocytes and NK cells were collected and properly diluted as described in each assay.
(§2) The mouse to be sacrificed was cervical dislocated and sterilized with 70% ethanol. The cardiac punctuation was performed first to withdraw the blood. After the haemagglutination, the blood sample was subjected to centrifugation and the serum was collect. For isolation of spleen cells, the peritoneum was opened to remove the spleen. The fresh spleen was transferred to a culture plate containing 10 ml of RPMI-1640 culture medium. […]
(§3) An ELISA was performed in our study to measure the immunoglobulin concentration. […] IgA, IgG and IgM concentrations were measured using a sandwich ELISA technique.
(§4) A 96-well microtiter plate (Nunc-Immuno Plate, MaxiSorp, Nunc, Denmark) was precoated with 100 ng/well of capture antibodies at 4° C. overnight. […] The absorbence at 490 nm in each well was read using an ELISA reader (EL311, BioTek, VT), and the data was analyzed using log-logit model.

IgG [2] = experiment: IgG secretion by spleen cells in vitro (LPS, ELISA) after oral administration; details: at day 5
Description: as §1, §2, §3, §4

## C=C(CC[C@@H](C(=O)O)[C@H]1[C@H](O)C[C@@]2(C)C3=CC[C@H]4C(C)(C)C(=O)CC[C@]4(C)C3=CC[C@]12C)C(C)C [K3]
Spleen cells
  Dose with significantly augmented effect on spleen cell growth: ≥ 5 mg/kg/day
IgG [1]
  Dose with significant reduction in serum level of IgG: ≥ 5 mg/kg/day

## C=C(CCC(C(=O)O)C1C(O)CC2(C)C3=CCC4C(C)(CCC(O)C4(C)C)C3=CCC12C)C(C)C (centres unmarked) [K4]
IgG [2]
  Dose with significantly augmented IgG secretion by spleen cells: ≥ 5 mg/kg/day
Spleen cells
  Dose with significantly augmented effect on spleen cell growth: ≥ 5 mg/kg/day
IgG [1]
  Dose significantly elevating serum level of IgG: ≥ 5 mg/kg/day
